According to article PMC10060162, “Structural basis of mitochondrial membrane bending by the I–II–III2–IV2 supercomplex” (Nature, 2023):
Results are given in words; binding and its absence hold for the method and conditions named. Some binding calls cover weakened binding; strength is not graded here.

Biological target: T1, COX3b (Tetrahymena thermophila) (UniProt Q950Y6)
T1 sequence: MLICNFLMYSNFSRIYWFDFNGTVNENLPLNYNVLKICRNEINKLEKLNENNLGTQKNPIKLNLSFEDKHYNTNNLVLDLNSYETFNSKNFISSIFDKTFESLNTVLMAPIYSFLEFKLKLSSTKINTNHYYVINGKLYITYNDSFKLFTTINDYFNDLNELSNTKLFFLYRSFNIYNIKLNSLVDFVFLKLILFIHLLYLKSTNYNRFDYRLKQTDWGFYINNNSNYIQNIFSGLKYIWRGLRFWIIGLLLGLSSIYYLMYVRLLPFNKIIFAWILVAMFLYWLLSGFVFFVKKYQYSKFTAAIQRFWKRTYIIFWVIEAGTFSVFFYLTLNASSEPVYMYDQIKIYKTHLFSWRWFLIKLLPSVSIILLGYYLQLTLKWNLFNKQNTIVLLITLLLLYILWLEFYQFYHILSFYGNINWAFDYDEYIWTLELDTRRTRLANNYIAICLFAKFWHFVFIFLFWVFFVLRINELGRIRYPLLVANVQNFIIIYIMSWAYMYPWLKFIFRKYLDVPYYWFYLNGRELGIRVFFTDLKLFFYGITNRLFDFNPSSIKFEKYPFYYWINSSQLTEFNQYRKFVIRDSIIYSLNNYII
Assay: cryo-EM structure; single-particle cryo-EM of the native supercomplex co-purified from T. thermophila mitochondria; buffer D (25 mM HEPES-KOH pH 7.5, 25 mM KCl, 5 mM MgCl2, 0.1% w/v digitonin); 2.9 Å overall, masked refinements 2.6-3.0 Å; both purified

binding: binds
B1: COX3a (protein, UniProt Q950Y7 1-453)
chain: MTALFLHILWSISYIIINILYIFLSLLLSNNNEKIKQYNSNYFIKILLVLFYNKNLSFYKNLLSEDEISKIEFERLKNYPTLVLIHSNLNKLEKRNKIINSFINFKTKYRFYKFISTNFNLQTIIKNCNDKIIFSTLLYIVNLNYSFFYKTIKNTDLIVYLLANKFSILNDNIIVSKFNISKFNDYIKYINNTNSIDTYLENQIILGLNNNTNSNITKNINTKLLNSYSNLKNLVNITNNTFYLKKINDNYNTVINSEFLTYLKSNYKISFSASNIVKYLSDKSVNNSVILYLRKNKIFNKSRYSRNRQTYRTGAYWCLYVNIIAVVAFYFWFYKFTMNFGYLWWLLYSLILSFFFSRALKHRFYNPLNVMTEFKNGFMWFIIILINIFKPLLKLLENNYINLYNHLVIKYYQSFICNTLINKKKLEFNYILSSFKFIKELNNIIIISLNKLF
